# Experimental data taken from patent US20250281573A1.
# Protein sequences, listed by entry. Tags and fused reporters are not part of them.
# UniProt P09874: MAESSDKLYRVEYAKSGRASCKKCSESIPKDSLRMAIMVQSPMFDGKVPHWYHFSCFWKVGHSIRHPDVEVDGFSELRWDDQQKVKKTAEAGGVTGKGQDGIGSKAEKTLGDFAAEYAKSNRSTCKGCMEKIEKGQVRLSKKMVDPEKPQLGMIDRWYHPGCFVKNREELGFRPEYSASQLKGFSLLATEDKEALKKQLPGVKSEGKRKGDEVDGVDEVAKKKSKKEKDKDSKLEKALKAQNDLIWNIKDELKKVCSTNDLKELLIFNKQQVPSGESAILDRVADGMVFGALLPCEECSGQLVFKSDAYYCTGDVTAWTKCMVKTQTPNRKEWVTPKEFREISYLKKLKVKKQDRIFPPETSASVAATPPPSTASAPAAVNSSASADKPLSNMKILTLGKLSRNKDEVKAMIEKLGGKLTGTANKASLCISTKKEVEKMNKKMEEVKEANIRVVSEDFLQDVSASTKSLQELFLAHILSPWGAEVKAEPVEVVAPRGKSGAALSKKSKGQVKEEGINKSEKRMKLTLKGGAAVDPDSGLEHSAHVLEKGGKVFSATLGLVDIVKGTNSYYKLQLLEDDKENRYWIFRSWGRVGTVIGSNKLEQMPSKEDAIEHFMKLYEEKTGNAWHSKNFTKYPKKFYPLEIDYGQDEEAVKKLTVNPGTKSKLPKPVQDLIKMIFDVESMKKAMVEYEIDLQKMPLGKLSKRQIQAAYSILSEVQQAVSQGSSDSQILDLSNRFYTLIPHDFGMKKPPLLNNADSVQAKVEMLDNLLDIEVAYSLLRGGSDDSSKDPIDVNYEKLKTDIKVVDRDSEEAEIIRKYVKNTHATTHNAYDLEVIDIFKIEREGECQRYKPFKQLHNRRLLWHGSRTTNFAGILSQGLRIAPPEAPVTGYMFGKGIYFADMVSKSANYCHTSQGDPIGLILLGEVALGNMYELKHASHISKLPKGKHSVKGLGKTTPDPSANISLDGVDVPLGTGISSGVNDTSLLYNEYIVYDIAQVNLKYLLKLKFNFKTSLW
# Results are given in words; binding and its absence hold for the method and conditions named. For some assays here: Binding seen in cells or lysates may run through a third protein. Some binding calls cover weakened binding; strength is not graded here. For some assays here: Sequences can lack the tags named with a protein.
# T1: TRAF2 (UniProt Q12933)
# T1 sequence (looked up): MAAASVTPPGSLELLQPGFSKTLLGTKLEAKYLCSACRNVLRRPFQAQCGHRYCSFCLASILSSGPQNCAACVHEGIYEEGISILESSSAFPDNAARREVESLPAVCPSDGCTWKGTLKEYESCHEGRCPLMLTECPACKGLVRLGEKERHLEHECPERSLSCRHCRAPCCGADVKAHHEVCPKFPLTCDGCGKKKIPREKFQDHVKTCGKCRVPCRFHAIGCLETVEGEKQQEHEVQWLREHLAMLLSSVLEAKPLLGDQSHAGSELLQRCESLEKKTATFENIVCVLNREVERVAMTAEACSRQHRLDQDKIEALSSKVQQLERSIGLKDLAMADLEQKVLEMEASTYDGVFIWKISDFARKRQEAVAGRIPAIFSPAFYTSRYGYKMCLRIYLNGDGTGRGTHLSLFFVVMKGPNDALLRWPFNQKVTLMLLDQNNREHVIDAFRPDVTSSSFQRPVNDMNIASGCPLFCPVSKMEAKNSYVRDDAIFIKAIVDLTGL
# T2: GFP- or Myc-tagged AIMP2 (Homo sapiens (Human)) (UniProt Q13155)
# T2 sequence: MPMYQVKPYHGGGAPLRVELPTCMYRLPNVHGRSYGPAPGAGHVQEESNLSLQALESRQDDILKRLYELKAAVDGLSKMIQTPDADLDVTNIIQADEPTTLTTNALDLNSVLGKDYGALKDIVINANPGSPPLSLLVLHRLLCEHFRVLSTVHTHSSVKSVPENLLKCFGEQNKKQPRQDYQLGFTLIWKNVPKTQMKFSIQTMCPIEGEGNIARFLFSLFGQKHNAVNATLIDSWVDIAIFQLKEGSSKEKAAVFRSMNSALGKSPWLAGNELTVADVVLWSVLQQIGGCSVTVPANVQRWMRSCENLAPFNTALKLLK
# Columns and labels:
# [1] = molecular target: poly (ADP-ribose) polymerase-1 (PARP-1) (UniProt P09874); assay: summary of PARP-1 immunoprecipitation experiments in SH-SY5Y cells
# [2] = molecular target: poly (ADP-ribose) polymerase-1 (PARP-1) (UniProt P09874); assay: PARP-1 pull-down from transfected SH-SY5Y cells, immunoblot (FIG. 7A)
# [3] = molecular target: poly (ADP-ribose) polymerase-1 (PARP-1) (UniProt P09874); assay: immunoprecipitation of PARP-1 from SH-SY5Y cells co-transfected with PARP-1, AIMP2 and DX2 plasmids (FIG. 7A)
# TRAF2 [4] = molecular target: T1, TRAF2; assay: TRAF2 immunoprecipitation from transfected HEK293 cells, anti-Myc immunoblot (FIG. 9A)
# TRAF2 [5] = molecular target: T1, TRAF2; assay: TRAF2 co-immunoprecipitation from transfected HEK293 cells
# [6] = molecular target: T2, GFP- or Myc-tagged AIMP2 (Homo sapiens (Human)); assay: co-immunoprecipitation of GFP- and Myc-tagged proteins from HEK 293 cells (FIG. 7D-7E)
# [7] = molecular target: T2, GFP- or Myc-tagged AIMP2 (Homo sapiens (Human)); assay: co-immunoprecipitation of GFP-/Myc-tagged proteins from HEK 293 cells (FIG. 7D-7E)
binder,measurement,setting,value
"AIMP2-DX2 (exon 2-deleted AIMP2 variant), expressed from a transfected plasmid (protein) MPMYQVKPYHGGGAPLRVELPTCMYRLPNVHGRSYGPAPGAGHVQDYGALKDIVINANPASPPLSLLVLHRLLCEHFRVLSTVHTHSSVKSVPENLLKCFGEQNKKQPRQDYQLGFTLIWKNVPKTQMKFSIQTMCPIEGEGNIARFLFSLFGQKHNAVNATLIDSWVDIAIFQLKEGSSKEKAAVFRSMNSALGKSPWLAGNELTVADVVLWSVLQQIGGCSVTVPANVQRWMRSCENLAPFNTALKLLK",binding,[1],binds
same,binding,[2],binds
same,binding,[3],binds
AIMP2 (aminoacyl tRNA synthase complex-interacting multifunctional protein 2) (protein) MPMYQVKPYHGGGAPLRVELPTCMYRLPNVHGRSYGPAPGAGHVQEESNLSLQALESRQDDILKRLYELKAAVDGLSKMIQTPDADLDVTNIIQADEPTTLTTNALDLNSVLGKDYGALKDIVINANPGSPPLSLLVLHRLLCEHFRVLSTVHTHSSVKSVPENLLKCFGEQNKKQPRQDYQLGFTLIWKNVPKTQMKFSIQTMCPIEGEGNIARFLFSLFGQKHNAVNATLIDSWVDIAIFQLKEGSSKEKAAVFRSMNSALGKSPWLAGNELTVADVVLWSVLQQIGGCSVTVPANVQRWMRSCENLAPFNTALKLLK,binding,[1],binds
same,binding,[2],binds
same,binding,[3],binds
"Myc-tagged AIMP2 (protein, not shown: small tags and cut ends) MPMYQVKPYHGGGAPLRVELPTCMYRLPNVHGRSYGPAPGAGHVQEESNLSLQALESRQDDILKRLYELKAAVDGLSKMIQTPDADLDVTNIIQADEPTTLTTNALDLNSVLGKDYGALKDIVINANPGSPPLSLLVLHRLLCEHFRVLSTVHTHSSVKSVPENLLKCFGEQNKKQPRQDYQLGFTLIWKNVPKTQMKFSIQTMCPIEGEGNIARFLFSLFGQKHNAVNATLIDSWVDIAIFQLKEGSSKEKAAVFRSMNSALGKSPWLAGNELTVADVVLWSVLQQIGGCSVTVPANVQRWMRSCENLAPFNTALKLLK",binding,TRAF2 [4],binds
same,binding,TRAF2 [5],binds
"GFP- or Myc-tagged DX2 (protein, not shown: large carriers) MPMYQVKPYHGGGAPLRVELPTCMYRLPNVHGRSYGPAPGAGHVQDYGALKDIVINANPASPPLSLLVLHRLLCEHFRVLSTVHTHSSVKSVPENLLKCFGEQNKKQPRQDYQLGFTLIWKNVPKTQMKFSIQTMCPIEGEGNIARFLFSLFGQKHNAVNATLIDSWVDIAIFQLKEGSSKEKAAVFRSMNSALGKSPWLAGNELTVADVVLWSVLQQIGGCSVTVPANVQRWMRSCENLAPFNTALKLLK",binding,[6],binds
same,binding,[7],binds
"GFP- or Myc-tagged AIMP2 (protein, not shown: large carriers) MPMYQVKPYHGGGAPLRVELPTCMYRLPNVHGRSYGPAPGAGHVQEESNLSLQALESRQDDILKRLYELKAAVDGLSKMIQTPDADLDVTNIIQADEPTTLTTNALDLNSVLGKDYGALKDIVINANPGSPPLSLLVLHRLLCEHFRVLSTVHTHSSVKSVPENLLKCFGEQNKKQPRQDYQLGFTLIWKNVPKTQMKFSIQTMCPIEGEGNIARFLFSLFGQKHNAVNATLIDSWVDIAIFQLKEGSSKEKAAVFRSMNSALGKSPWLAGNELTVADVVLWSVLQQIGGCSVTVPANVQRWMRSCENLAPFNTALKLLK",binding,[6],binds
